The supplement of paper PMC10849652
The other results are listed elsewhere or left out.

The chains behind the UniProt entries cited, without tags or fusion partners. Where a name states a change or a piece, a line headed by the entry shows the natural chain unless it says otherwise.
UniProt Q99574: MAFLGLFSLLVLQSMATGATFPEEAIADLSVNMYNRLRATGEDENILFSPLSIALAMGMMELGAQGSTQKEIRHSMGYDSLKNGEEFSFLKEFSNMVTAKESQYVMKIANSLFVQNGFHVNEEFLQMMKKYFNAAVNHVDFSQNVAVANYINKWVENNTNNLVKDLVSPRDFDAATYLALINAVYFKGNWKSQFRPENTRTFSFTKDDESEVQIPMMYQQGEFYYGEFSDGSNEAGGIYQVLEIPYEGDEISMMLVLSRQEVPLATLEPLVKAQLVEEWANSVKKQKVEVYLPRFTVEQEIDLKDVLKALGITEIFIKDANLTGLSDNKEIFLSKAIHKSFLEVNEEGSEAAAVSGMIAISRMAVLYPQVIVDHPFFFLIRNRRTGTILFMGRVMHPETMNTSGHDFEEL
UniProt P49281: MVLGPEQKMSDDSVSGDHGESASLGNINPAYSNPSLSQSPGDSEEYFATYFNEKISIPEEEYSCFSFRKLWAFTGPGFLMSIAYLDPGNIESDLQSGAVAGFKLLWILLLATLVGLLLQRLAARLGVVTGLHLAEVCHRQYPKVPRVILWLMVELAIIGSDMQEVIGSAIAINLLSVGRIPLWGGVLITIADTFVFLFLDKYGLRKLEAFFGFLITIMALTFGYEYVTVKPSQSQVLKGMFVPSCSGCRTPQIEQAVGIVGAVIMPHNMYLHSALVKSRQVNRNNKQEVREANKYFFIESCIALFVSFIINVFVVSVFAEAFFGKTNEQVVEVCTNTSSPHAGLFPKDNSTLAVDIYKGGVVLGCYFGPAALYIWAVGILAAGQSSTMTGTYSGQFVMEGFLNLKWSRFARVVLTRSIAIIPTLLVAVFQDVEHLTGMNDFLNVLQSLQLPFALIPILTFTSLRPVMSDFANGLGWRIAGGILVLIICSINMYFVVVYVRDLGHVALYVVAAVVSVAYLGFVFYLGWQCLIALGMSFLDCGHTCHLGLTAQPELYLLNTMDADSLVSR
UniProt Q9H299: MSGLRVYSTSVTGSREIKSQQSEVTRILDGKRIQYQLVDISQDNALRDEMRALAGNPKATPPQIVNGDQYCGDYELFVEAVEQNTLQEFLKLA
UniProt Q9BWJ5: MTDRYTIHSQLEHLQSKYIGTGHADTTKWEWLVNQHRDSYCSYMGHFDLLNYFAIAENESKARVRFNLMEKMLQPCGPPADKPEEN
UniProt Q9NP31, whole entry, looked up: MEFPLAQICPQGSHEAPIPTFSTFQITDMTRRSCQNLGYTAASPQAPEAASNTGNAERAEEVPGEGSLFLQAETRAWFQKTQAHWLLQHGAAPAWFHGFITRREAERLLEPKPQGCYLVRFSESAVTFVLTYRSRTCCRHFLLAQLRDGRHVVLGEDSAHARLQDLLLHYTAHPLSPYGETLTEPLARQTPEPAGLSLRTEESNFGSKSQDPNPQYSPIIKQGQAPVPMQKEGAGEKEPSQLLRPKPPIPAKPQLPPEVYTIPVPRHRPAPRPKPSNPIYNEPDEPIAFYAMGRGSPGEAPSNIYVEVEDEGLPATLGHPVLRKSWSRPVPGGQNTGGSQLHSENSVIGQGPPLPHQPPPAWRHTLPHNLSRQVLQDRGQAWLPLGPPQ
UniProt Q9UP95: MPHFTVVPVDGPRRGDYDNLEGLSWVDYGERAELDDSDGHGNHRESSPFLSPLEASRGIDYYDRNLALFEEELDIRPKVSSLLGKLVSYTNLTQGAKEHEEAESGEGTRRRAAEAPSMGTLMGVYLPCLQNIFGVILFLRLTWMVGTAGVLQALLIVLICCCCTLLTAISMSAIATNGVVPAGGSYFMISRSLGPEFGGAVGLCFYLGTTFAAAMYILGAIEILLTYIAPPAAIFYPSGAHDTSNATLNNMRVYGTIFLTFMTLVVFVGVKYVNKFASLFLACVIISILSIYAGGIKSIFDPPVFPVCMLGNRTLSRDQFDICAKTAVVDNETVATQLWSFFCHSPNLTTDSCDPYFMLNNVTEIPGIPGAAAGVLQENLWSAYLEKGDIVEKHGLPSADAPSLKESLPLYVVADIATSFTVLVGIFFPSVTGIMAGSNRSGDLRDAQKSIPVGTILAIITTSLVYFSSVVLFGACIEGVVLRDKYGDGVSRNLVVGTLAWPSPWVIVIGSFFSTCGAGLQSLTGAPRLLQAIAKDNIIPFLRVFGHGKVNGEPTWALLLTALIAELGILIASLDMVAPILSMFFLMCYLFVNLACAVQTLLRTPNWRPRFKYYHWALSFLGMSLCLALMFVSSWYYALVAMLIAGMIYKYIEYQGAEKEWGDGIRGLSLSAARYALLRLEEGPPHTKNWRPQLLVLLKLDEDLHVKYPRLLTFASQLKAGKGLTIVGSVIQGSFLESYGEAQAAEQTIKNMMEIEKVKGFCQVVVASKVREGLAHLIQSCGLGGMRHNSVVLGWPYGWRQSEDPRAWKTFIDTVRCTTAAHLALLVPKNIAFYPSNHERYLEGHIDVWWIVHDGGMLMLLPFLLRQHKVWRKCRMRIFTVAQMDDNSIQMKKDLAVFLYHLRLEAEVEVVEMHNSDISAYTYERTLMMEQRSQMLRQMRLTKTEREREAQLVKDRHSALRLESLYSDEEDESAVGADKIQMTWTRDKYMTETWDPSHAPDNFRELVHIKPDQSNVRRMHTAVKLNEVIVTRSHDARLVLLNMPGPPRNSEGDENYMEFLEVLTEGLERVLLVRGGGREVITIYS
UniProt P84101: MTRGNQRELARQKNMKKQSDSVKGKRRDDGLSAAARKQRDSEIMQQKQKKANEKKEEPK
UniProt Q14493, whole entry, looked up: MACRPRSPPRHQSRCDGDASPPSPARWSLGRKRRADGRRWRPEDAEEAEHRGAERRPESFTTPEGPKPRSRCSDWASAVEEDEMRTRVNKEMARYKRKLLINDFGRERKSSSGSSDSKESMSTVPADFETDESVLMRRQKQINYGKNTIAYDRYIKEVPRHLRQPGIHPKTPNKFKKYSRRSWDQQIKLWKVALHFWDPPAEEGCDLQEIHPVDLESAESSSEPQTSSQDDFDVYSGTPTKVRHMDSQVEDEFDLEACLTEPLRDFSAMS
UniProt Q9BRV8: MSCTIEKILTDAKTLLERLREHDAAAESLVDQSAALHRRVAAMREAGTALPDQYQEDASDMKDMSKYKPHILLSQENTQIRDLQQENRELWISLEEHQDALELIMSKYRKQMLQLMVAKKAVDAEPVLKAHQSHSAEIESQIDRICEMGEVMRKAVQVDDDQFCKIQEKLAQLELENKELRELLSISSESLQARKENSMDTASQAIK
UniProt P29353: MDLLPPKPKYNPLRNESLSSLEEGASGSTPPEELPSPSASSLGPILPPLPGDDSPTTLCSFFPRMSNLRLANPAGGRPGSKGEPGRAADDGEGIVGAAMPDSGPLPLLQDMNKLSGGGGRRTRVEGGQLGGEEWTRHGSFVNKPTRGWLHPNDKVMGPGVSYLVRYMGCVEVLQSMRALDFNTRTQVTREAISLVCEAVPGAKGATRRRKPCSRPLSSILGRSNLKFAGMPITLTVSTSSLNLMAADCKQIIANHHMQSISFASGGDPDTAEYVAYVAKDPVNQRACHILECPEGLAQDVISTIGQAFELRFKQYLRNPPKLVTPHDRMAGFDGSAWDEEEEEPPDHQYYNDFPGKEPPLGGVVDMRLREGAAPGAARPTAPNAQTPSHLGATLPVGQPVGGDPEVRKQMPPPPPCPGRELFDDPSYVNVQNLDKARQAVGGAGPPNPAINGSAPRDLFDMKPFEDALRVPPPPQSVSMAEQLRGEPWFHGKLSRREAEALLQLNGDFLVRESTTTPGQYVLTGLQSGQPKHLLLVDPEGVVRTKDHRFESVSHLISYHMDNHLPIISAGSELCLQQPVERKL
UniProt Q13435: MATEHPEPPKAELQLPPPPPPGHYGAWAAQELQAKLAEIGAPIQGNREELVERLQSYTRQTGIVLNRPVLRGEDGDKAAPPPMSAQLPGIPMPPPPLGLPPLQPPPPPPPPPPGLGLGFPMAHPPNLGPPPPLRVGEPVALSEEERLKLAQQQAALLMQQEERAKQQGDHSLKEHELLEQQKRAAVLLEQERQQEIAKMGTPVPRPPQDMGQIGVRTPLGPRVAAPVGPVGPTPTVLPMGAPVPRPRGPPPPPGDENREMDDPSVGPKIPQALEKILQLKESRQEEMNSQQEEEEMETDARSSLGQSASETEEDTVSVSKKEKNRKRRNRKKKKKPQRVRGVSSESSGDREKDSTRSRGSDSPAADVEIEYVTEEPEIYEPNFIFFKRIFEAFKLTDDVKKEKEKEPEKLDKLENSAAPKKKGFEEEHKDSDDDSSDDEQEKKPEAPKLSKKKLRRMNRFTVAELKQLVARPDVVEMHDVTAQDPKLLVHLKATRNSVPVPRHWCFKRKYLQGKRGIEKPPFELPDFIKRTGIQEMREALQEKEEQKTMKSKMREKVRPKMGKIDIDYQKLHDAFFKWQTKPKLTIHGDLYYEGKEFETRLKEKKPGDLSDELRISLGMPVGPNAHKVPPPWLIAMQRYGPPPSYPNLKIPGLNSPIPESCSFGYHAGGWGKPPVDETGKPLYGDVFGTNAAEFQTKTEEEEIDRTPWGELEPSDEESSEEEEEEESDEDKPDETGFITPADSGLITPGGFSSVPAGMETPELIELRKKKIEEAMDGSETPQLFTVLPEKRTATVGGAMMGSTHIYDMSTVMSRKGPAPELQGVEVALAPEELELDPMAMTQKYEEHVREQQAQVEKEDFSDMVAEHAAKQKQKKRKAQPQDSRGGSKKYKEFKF
UniProt P43007: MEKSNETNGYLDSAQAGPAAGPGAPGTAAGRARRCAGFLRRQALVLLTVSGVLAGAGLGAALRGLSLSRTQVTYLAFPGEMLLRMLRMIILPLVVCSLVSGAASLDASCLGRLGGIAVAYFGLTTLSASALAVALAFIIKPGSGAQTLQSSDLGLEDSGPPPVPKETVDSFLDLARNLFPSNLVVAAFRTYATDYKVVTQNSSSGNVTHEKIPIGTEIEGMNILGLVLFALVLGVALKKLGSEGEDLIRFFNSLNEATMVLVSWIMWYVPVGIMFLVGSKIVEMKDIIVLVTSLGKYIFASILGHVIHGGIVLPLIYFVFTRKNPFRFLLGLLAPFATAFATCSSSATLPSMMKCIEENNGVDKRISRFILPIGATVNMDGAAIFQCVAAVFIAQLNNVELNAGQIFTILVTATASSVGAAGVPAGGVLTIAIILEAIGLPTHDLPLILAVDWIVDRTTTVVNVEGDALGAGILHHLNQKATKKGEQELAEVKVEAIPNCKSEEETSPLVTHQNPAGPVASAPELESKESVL
UniProt Q12872: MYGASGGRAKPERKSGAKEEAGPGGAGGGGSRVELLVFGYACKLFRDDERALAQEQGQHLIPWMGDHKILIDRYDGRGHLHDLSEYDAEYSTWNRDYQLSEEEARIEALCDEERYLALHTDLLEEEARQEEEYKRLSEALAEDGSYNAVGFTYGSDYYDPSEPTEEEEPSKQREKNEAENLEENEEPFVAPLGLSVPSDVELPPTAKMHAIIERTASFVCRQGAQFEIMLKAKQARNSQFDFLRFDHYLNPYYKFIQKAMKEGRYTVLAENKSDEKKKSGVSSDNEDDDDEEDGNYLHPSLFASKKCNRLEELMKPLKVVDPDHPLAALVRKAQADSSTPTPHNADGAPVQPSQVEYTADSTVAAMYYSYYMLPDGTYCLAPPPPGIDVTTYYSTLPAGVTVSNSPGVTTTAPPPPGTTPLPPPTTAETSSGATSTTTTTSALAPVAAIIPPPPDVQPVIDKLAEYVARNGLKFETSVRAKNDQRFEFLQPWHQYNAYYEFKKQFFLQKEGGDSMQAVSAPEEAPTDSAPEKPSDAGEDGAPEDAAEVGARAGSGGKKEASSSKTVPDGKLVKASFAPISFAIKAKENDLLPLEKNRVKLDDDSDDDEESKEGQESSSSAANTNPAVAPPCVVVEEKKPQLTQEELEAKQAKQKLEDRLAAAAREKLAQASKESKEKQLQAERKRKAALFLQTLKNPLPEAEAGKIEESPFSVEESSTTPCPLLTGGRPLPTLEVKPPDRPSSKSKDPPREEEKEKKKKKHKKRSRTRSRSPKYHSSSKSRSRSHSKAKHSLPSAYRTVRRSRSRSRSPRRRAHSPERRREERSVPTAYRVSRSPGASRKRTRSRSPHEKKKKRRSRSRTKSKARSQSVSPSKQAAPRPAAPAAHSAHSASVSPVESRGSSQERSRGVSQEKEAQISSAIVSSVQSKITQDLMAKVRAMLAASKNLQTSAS
UniProt Q8IX90, whole entry, looked up: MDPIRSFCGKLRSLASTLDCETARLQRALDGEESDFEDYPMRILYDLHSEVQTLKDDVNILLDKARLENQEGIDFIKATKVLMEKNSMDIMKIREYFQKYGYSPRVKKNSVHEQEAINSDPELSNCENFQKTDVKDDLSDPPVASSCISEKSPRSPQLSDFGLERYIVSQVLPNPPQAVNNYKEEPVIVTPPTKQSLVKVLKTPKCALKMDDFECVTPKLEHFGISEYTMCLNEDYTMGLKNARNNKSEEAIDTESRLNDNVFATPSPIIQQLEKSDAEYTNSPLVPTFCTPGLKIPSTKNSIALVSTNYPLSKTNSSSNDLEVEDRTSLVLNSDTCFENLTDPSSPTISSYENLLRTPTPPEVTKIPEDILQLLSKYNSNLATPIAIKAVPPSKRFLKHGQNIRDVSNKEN

Legend:
Assay in all cases: log2 fold change, soluble protein after heating vs DMSO (PISA); higher = thermal stabilisation; K562 lysate, 10 uM; active = over 0.2 and 3.5 SD of the protein, either way, in both replicates (recomputed)
vemurafenib = compound: CCCS(=O)(=O)Nc1ccc(F)c(C(=O)c2c[nH]c3ncc(-c4ccc(Cl)cc4)cc23)c1F [vemurafenib]
In short: (§1)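 Dounce homogenisation of K562 pellets in PBS pH 7.4 with 1 mM MgCl2 produced a crude extract, used at 1 mg/mL protein. Exposure to 10 μM compound lasted 30 min, and aliquots were then heated for 3 min across 48°C-58°C, pooled and brought to 0.5% NP-40 at 4°C. The supernatant after 21,000xg for 90 min was quantified by TMTpro 16plex LC-MS/MS with channel sums equalised. Duplicate values are given as log-two fold change in thermal stability relative to solvent controls.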

[1] = compound: CCCS(=O)(=O)Nc1ccc(F)c(C(=O)c2c[nH]c3ncc(Cl)cc23)c1F
In short: as §1

barasertib = compound: CCN(CCCOc1ccc2c(Nc3cc(CC(=O)Nc4cccc(F)c4)[nH]n3)ncnc2c1)CCOP(=O)(O)O [barasertib]
In short: as §1

[2] = compound: CC[C@@H]1C(=O)N(C)c2cnc(Nc3ccc(C(=O)NC4CCN(C)CC4)cc3OC)nc2N1C1CCCC1
In short: as §1

volasertib = compound: CC[C@@H]1C(=O)N(C)c2cnc(Nc3ccc(C(=O)N[C@H]4CC[C@H](N5CCN(CC6CC6)CC5)CC4)cc3OC)nc2N1C(C)C [volasertib]
In short: as §1

[3] = compound: CCn1c(C(=O)N(C2CC2)C2CC2)cc2c3c(ncn3C)c(Nc3cc(C)n(C)n3)nc21
In short: as §1

[4] = compound: CCn1cc(-c2ccnc3[nH]c(-c4cccc(CN(C)C)c4)cc23)c(-c2ccc(NC(=O)N(C)C)cc2)n1
In short: as §1

[5] = compound: CN1CCC(CNc2ccc3ncc(-c4cccc(OC(F)(F)F)c4)n3n2)CC1
In short: as §1

saracatinib = compound: CN1CCN(CCOc2cc(OC3CCOCC3)c3c(Nc4c(Cl)ccc5c4OCO5)ncnc3c2)CC1 [saracatinib]
In short: as §1

sotrastaurin = compound: CN1CCN(c2nc(C3=C(c4c[nH]c5ccccc45)C(=O)NC3=O)c3ccccc3n2)CC1 [sotrastaurin]
In short: as §1

Target	log2 fold change (vemurafenib)	log2 fold change [1]	log2 fold change (barasertib)	log2 fold change [2]	log2 fold change (volasertib)	log2 fold change [3]	log2 fold change [4]	log2 fold change [5]	log2 fold change (saracatinib)	log2 fold change (sotrastaurin)
SHKBP1 (UniProt Q8TBC3)	inactive: 0.079	inactive: -0.017	inactive: 0.03	inactive: -0.038	inactive: 0.033	inactive: -0.058	inactive: -0.093	inactive: 0.103	inactive: 0.013	inactive: 0.017
SERPINI1 (UniProt Q99574)	inactive: 0.027	inactive: 0.008	inactive: -0.006	inactive: 0.024	inactive: -0.001	inactive: 0.03	inactive: 0.001	inactive: 0.069	inactive: 0	inactive: 0.016
SLC20A2 (UniProt Q08357)	inactive: 0.086	inactive: 0.007	inactive: 0.081	inactive: 0.035	inactive: 0.017	inactive: 0.062	inactive: 0.054	inactive: 0.027	inactive: 0.154	inactive: 0.051
SGTB (UniProt Q96EQ0)	inactive: 0.023	inactive: -0.001	inactive: 0.034	inactive: -0.021	inactive: 0.012	inactive: 0.04	inactive: 0.028	inactive: -0.047	inactive: -0.01	inactive: -0.013
SLC11A2 isoform 3 (UniProt P49281)	inactive: -0.009	inactive: 0.043	inactive: 0.019	inactive: 0.073	inactive: 0.026	inactive: 0.036	inactive: -0.082	inactive: 0.074	inactive: 0.028	inactive: -0.012
SH3BGRL3 (UniProt Q9H299)	inactive: 0.021	inactive: 0.016	inactive: 0.099	inactive: 0.011	inactive: 0.017	inactive: 0.025	inactive: -0.078	inactive: -0.032	inactive: 0.001	inactive: 0.016
SERPINF1 (UniProt P36955)	inactive: -0.024	inactive: 0.084	inactive: -0.066	inactive: 0.047	inactive: 0.042	inactive: 0.001	inactive: 0.029	inactive: 0.002	inactive: -0.034	inactive: -0.004
SH3BP1 (UniProt Q9Y3L3)	inactive: 0.082	inactive: 0.037	inactive: 0.035	inactive: -0.003	inactive: -0.018	inactive: -0.005	inactive: -0.04	inactive: 0.035	inactive: -0.007	inactive: -0.029
SF3B5 (UniProt Q9BWJ5)	inactive: 0.022	inactive: 0.04	inactive: 0.075	inactive: -0.089	inactive: -0.004	inactive: -0.039	inactive: 0	inactive: -0.033	inactive: 0.086	inactive: 0.004
SH2D2A isoform 2 (UniProt Q9NP31)	inactive: -0.018	inactive: 0.079	inactive: -0.131	inactive: -0.04	inactive: -0.125	inactive: -0.064	inactive: -0.075	inactive: 0.034	inactive: 0.094	inactive: -0.004
SLC12A4 (UniProt Q9UP95)	inactive: 0.033	inactive: 0.038	inactive: -0.004	inactive: 0.024	inactive: -0.043	inactive: 0.032	inactive: 0.026	inactive: -0.065	inactive: 0.036	inactive: 0.019
SERF2 (UniProt P84101)	inactive: 0.071	inactive: -0.071	inactive: 0.063	inactive: 0.072	inactive: -0.128	inactive: -0.037	inactive: -0.003	inactive: 0.063	inactive: -0.013	inactive: -0.003
SETD3 (UniProt Q86TU7)	inactive: -0.017	inactive: 0.009	inactive: 0.055	inactive: -0.074	inactive: -0.016	inactive: -0.005	inactive: 0	inactive: -0.019	inactive: -0.032	inactive: 0.013
SLBP (UniProt Q14493)	inactive: -0.001	inactive: 0.004	inactive: -0.009	inactive: -0.083	inactive: 0.014	inactive: 0.072	inactive: -0.006	inactive: 0.007	inactive: 0.022	inactive: 0.114
SERPINC1 (UniProt P01008)	inactive: 0.165	inactive: -0.009	inactive: 0.09	inactive: 0.124	inactive: 0.015	inactive: -0.067	inactive: -0.112	inactive: 0.102	inactive: 0.043	inactive: -0.011
SFN (UniProt P31947)	inactive: -0.038	inactive: 0.003	inactive: -0.025	inactive: 0.006	inactive: 0.029	inactive: 0.023	active: 0.521	inactive: -0.084	inactive: -0.003	inactive: -0.01
SETDB1 (UniProt Q15047)	inactive: 0.045	inactive: 0	inactive: 0.127	inactive: 0.039	inactive: 0.079	inactive: -0.062	inactive: -0.173	inactive: 0.04	inactive: -0.021	inactive: 0.012
SIKE1 (UniProt Q9BRV8)	inactive: 0.073	inactive: 0.028	inactive: 0.182	inactive: 0.031	inactive: 0.019	inactive: -0.001	inactive: 0.045	inactive: -0.021	inactive: 0.043	inactive: 0.061
SHPRH (UniProt Q149N8)	inactive: 0.061	inactive: -0.014	inactive: 0.073	inactive: -0.044	inactive: 0.03	inactive: -0.02	inactive: 0.034	inactive: 0.025	inactive: 0.012	inactive: -0.016
SKP1 (UniProt P63208)	inactive: -0.037	inactive: -0.016	inactive: 0.077	inactive: 0.068	inactive: 0.037	inactive: -0.032	inactive: 0.033	inactive: 0.002	inactive: -0.036	inactive: 0.033
SHC1 isoform 6 (UniProt P29353)	inactive: 0.028	inactive: 0.003	inactive: 0.008	inactive: -0.027	inactive: 0.01	inactive: -0.035	active: 0.635	inactive: -0.163	inactive: -0.007	inactive: 0.017
SF3B2 (UniProt Q13435)	inactive: 0.014	inactive: 0.007	inactive: -0.015	inactive: -0.003	inactive: 0.007	inactive: -0.002	inactive: -0.056	inactive: 0.019	inactive: 0.016	inactive: -0.013
SLAIN2 (UniProt Q9P270)	inactive: 0.01	inactive: 0.002	inactive: 0.006	inactive: 0.095	inactive: 0.01	inactive: -0.026	inactive: -0.006	inactive: 0.03	inactive: -0.01	inactive: -0.012
SLC1A4 (UniProt P43007)	inactive: 0.011	inactive: -0.011	inactive: -0.026	inactive: 0.017	inactive: 0.021	inactive: 0.013	inactive: -0.084	inactive: 0.048	inactive: -0.02	inactive: 0.043
SFSWAP isoform 2 (UniProt Q12872)	inactive: 0.043	inactive: -0.012	inactive: 0.01	inactive: 0.028	inactive: -0.027	inactive: -0.005	inactive: -0.005	inactive: 0.014	inactive: -0.007	inactive: -0.019
SF3B4 (UniProt Q15427)	inactive: -0.029	inactive: -0.007	inactive: 0.191	inactive: 0.057	inactive: 0.047	inactive: -0.018	inactive: -0.162	inactive: 0.119	inactive: 0.015	inactive: -0.011
SIGMAR1 (UniProt Q99720)	inactive: 0.033	inactive: 0.032	inactive: -0.034	inactive: 0.019	inactive: -0.038	inactive: 0.018	inactive: -0.203	inactive: 0.066	inactive: -0.001	inactive: 0.027
SH3BGR (UniProt P55822)	inactive: 0.009	inactive: 0.016	inactive: 0.073	inactive: 0.009	inactive: 0.048	inactive: 0.014	inactive: 0.01	inactive: 0.01	inactive: -0.024	inactive: 0.053
SKA3 (UniProt Q8IX90)	inactive: 0.047	inactive: 0.011	inactive: -0.062	inactive: 0.016	inactive: 0.007	inactive: -0.018	inactive: -0.027	inactive: 0.023	inactive: 0.017	inactive: 0.028

Part of the list above, in CSV form:
Target,log2 fold change (vemurafenib),log2 fold change [1],log2 fold change (barasertib),log2 fold change [2],log2 fold change (volasertib),log2 fold change [3],log2 fold change [4],log2 fold change [5],log2 fold change (saracatinib),log2 fold change (sotrastaurin)
SERPINI1 (UniProt Q99574),inactive: 0.027,inactive: 0.008,inactive: -0.006,inactive: 0.024,inactive: -0.001,inactive: 0.03,inactive: 0.001,inactive: 0.069,inactive: 0,inactive: 0.016
SLC20A2 (UniProt Q08357),inactive: 0.086,inactive: 0.007,inactive: 0.081,inactive: 0.035,inactive: 0.017,inactive: 0.062,inactive: 0.054,inactive: 0.027,inactive: 0.154,inactive: 0.051
SGTB (UniProt Q96EQ0),inactive: 0.023,inactive: -0.001,inactive: 0.034,inactive: -0.021,inactive: 0.012,inactive: 0.04,inactive: 0.028,inactive: -0.047,inactive: -0.01,inactive: -0.013
SLC11A2 isoform 3 (UniProt P49281),inactive: -0.009,inactive: 0.043,inactive: 0.019,inactive: 0.073,inactive: 0.026,inactive: 0.036,inactive: -0.082,inactive: 0.074,inactive: 0.028,inactive: -0.012
SH3BGRL3 (UniProt Q9H299),inactive: 0.021,inactive: 0.016,inactive: 0.099,inactive: 0.011,inactive: 0.017,inactive: 0.025,inactive: -0.078,inactive: -0.032,inactive: 0.001,inactive: 0.016
SERPINF1 (UniProt P36955),inactive: -0.024,inactive: 0.084,inactive: -0.066,inactive: 0.047,inactive: 0.042,inactive: 0.001,inactive: 0.029,inactive: 0.002,inactive: -0.034,inactive: -0.004
